Results are given in words; binding and its absence hold for the method and conditions named. In cells and extracts the contact can be indirect. For some of these results: A result given as binding can be weak or reduced; the word gives no strength.
Legend:
Experiment in all cases: co-IP; lysates of transfected S2 cells; lysis buffer 150 mM NaCl, 50 mM HEPES pH 7.5, 0.5% Triton X-100 with phosphatase and protease inhibitors; GFP- or Myc-tagged proteins taken with GFP-Trap or Myc-Trap agarose, western blot; in some panels Meru or Meru^RxL as a third protein, Cdk1/CycA co-expressed, or CycA RNAi
[1] = target: T1, Cyclin E (Drosophila) (UniProt P54733)
T1 sequence: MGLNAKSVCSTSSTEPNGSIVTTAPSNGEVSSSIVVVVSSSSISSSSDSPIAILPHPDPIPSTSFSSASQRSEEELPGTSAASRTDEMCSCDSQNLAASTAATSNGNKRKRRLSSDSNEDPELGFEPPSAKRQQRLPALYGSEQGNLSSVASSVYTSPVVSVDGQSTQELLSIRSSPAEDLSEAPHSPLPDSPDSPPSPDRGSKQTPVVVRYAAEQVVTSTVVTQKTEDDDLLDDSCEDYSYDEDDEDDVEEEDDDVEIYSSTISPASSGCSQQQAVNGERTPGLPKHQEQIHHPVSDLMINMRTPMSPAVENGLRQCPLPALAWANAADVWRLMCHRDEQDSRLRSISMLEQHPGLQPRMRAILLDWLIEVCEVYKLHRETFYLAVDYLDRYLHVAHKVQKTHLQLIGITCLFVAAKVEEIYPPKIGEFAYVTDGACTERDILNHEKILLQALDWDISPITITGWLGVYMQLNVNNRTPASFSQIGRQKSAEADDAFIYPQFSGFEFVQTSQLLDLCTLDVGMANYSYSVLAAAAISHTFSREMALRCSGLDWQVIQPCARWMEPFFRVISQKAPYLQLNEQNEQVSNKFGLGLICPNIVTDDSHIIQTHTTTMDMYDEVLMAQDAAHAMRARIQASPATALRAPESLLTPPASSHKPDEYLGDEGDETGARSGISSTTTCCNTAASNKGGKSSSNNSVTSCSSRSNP

[2] = target: T2, Cyclin B (Drosophila) (UniProt P20439)
T2 sequence: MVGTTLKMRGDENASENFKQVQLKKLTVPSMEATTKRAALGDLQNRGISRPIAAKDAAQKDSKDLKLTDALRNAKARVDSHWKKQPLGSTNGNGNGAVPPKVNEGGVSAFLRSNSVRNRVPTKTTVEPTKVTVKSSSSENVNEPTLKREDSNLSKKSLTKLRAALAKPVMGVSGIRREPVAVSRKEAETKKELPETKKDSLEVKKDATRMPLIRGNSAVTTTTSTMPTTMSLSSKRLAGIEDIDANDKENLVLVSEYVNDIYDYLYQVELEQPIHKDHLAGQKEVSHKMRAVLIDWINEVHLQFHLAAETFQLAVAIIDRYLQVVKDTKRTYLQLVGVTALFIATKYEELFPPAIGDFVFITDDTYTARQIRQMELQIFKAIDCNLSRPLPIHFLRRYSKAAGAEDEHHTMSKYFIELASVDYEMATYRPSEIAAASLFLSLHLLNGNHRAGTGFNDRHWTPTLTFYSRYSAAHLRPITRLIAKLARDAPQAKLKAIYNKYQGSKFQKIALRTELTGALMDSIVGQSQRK

[3] = target: T3, Cyclin A (Drosophila) (UniProt P14785)
T3 sequence: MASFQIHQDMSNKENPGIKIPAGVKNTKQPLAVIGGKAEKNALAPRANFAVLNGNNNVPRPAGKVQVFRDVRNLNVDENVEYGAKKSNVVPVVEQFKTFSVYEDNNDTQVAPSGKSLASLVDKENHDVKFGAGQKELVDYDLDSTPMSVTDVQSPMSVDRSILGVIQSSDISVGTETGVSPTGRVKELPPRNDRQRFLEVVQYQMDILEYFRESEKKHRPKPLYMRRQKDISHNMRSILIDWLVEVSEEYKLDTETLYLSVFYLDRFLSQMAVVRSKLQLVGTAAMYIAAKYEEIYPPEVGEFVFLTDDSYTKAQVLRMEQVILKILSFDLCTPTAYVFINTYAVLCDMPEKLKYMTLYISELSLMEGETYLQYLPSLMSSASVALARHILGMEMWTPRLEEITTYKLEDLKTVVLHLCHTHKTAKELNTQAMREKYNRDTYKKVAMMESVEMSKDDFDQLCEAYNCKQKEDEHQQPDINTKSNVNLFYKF

binding [1]	binding [2]	binding [3]	Substance
no binding	binds weakly	binds	Meru (full-length, wild-type) (Drosophila)
–	–	no binding	Mud (1452–1961) (Drosophila) (domain or fragment)

Source: PMC12084343
